PubChem BioAssay AID1224830 | NIAID | 2016
Assay: 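Genes whose knock-down alters the TNF-alpha reporter response to LPS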 (primary screen). Cell system: human THP-1 monocytic leukaemia cells, TNF dual-luciferase reporter clone, PMA-differentiated to macrophage-like cells. Knock-down reagent: siRNA pool against human genes, 50 nM. Timing: LPS for 4 h, given about 3 days after siRNA transfection. Conditions: bacterial LPS (TLR4 ligand), 10 ng/ml. Measured: 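Ratio of firefly to renilla light, scaled to the plate median and expressed as a robust z-score per replicate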. Direction: TNF reporter robust z-score: higher = stronger TNF reporter response to LPS. Hit rule: 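a well is active when its z-score exceeds 2.8 or falls below -1.5; control wells carry no call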.
The whole screen tested about 18,000 reagents; shown is a random part of them. About 2,900 of all reagents (16%) count as active. 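Calls are made per well; low scores hint the gene aids the LPS response, high scores that it dampens it.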 Repeated entries: four replicate wells of each siRNA pool. Reagent sequences are not shown.

gene	TNF reporter robust z-score	outcome
EGFLAM (EGF like, fibronectin type III and laminin G domains)	-1.19	inactive
EGFLAM (EGF like, fibronectin type III and laminin G domains)	-0.95	inactive
EGFLAM (EGF like, fibronectin type III and laminin G domains)	-1.08	inactive
EGFLAM (EGF like, fibronectin type III and laminin G domains)	-0.94	inactive
ADRA1A (adrenoceptor alpha 1A)	-0.04	inactive
ADRA1A (adrenoceptor alpha 1A)	0.04	inactive
ADRA1A (adrenoceptor alpha 1A)	-0.26	inactive
ADRA1A (adrenoceptor alpha 1A)	0.23	inactive
ZNF318 (zinc finger protein 318)	-0.65	inactive
ZNF318 (zinc finger protein 318)	-0.38	inactive
ZNF318 (zinc finger protein 318)	-0.44	inactive
ZNF318 (zinc finger protein 318)	-0.34	inactive
PAN3 (poly(A) specific ribonuclease subunit PAN3)	-0.47	inactive
PAN3 (poly(A) specific ribonuclease subunit PAN3)	-0.42	inactive
PAN3 (poly(A) specific ribonuclease subunit PAN3)	-0.08	inactive
PAN3 (poly(A) specific ribonuclease subunit PAN3)	0.34	inactive
NGDN (neuroguidin)	0.03	inactive
NGDN (neuroguidin)	-0.42	inactive
NGDN (neuroguidin)	-0.93	inactive
NGDN (neuroguidin)	-0.23	inactive
PLAAT1 (phospholipase A and acyltransferase 1)	0.56	inactive
PLAAT1 (phospholipase A and acyltransferase 1)	0.66	inactive
PLAAT1 (phospholipase A and acyltransferase 1)	-0.95	inactive
PLAAT1 (phospholipase A and acyltransferase 1)	0.17	inactive
CDCA5 (cell division cycle associated 5)	0.13	inactive
CDCA5 (cell division cycle associated 5)	1.72	inactive
CDCA5 (cell division cycle associated 5)	1.2	inactive
CDCA5 (cell division cycle associated 5)	1.67	inactive
MFSD8 (major facilitator superfamily domain containing 8)	0.15	inactive
MFSD8 (major facilitator superfamily domain containing 8)	1.09	inactive
MFSD8 (major facilitator superfamily domain containing 8)	0.89	inactive
MFSD8 (major facilitator superfamily domain containing 8)	-0.42	inactive
ZKSCAN7 (zinc finger with KRAB and SCAN domains 7)	2.12	inactive
ZKSCAN7 (zinc finger with KRAB and SCAN domains 7)	-0.17	inactive
ZKSCAN7 (zinc finger with KRAB and SCAN domains 7)	0.45	inactive
ZKSCAN7 (zinc finger with KRAB and SCAN domains 7)	1.45	inactive
ZFP28 (ZFP28 zinc finger protein)	0.75	inactive
ZFP28 (ZFP28 zinc finger protein)	-0.35	inactive
ZFP28 (ZFP28 zinc finger protein)	-0.5	inactive
ZFP28 (ZFP28 zinc finger protein)	0.37	inactive
BRSK2 (BR serine/threonine kinase 2)	-0.98	inactive
BRSK2 (BR serine/threonine kinase 2)	-0.7	inactive
BRSK2 (BR serine/threonine kinase 2)	-1.18	inactive
BRSK2 (BR serine/threonine kinase 2)	-0.22	inactive
POLA2 (DNA polymerase alpha 2, accessory subunit)	0.14	inactive
POLA2 (DNA polymerase alpha 2, accessory subunit)	0.01	inactive
POLA2 (DNA polymerase alpha 2, accessory subunit)	-0.27	inactive
POLA2 (DNA polymerase alpha 2, accessory subunit)	0.24	inactive
UPF1 (UPF1 RNA helicase and ATPase)	0.35	inactive
UPF1 (UPF1 RNA helicase and ATPase)	0.98	inactive
UPF1 (UPF1 RNA helicase and ATPase)	0.08	inactive
UPF1 (UPF1 RNA helicase and ATPase)	0.39	inactive
GRK4 (G protein-coupled receptor kinase 4)	-1.02	inactive
GRK4 (G protein-coupled receptor kinase 4)	-0.97	inactive
GRK4 (G protein-coupled receptor kinase 4)	-0.7	inactive
GRK4 (G protein-coupled receptor kinase 4)	-0.3	inactive
COG5 (component of oligomeric golgi complex 5)	-0.7	inactive
COG5 (component of oligomeric golgi complex 5)	-0.61	inactive
COG5 (component of oligomeric golgi complex 5)	-0.29	inactive
COG5 (component of oligomeric golgi complex 5)	0.02	inactive

Targets above whose gene name starts with U or u:
gene	TNF reporter robust z-score	outcome
UPF1 (UPF1 RNA helicase and ATPase)	0.35	inactive
UPF1 (UPF1 RNA helicase and ATPase)	0.98	inactive
UPF1 (UPF1 RNA helicase and ATPase)	0.08	inactive
UPF1 (UPF1 RNA helicase and ATPase)	0.39	inactive

Further reagents:
gene	TNF reporter robust z-score	outcome
CCDC150 (coiled-coil domain containing 150)	0.12	inactive
CCDC150 (coiled-coil domain containing 150)	0.68	inactive
CCDC150 (coiled-coil domain containing 150)	-0.85	inactive
CCDC150 (coiled-coil domain containing 150)	0.15	inactive
UGT1A1 (UDP glucuronosyltransferase family 1 member A1)	-1.05	inactive
UGT1A1 (UDP glucuronosyltransferase family 1 member A1)	-0.82	inactive
UGT1A1 (UDP glucuronosyltransferase family 1 member A1)	-0.99	inactive
UGT1A1 (UDP glucuronosyltransferase family 1 member A1)	-0.47	inactive
SEMA4C (semaphorin 4C)	-0.47	inactive
SEMA4C (semaphorin 4C)	1.21	inactive
SEMA4C (semaphorin 4C)	0.47	inactive
SEMA4C (semaphorin 4C)	-0.21	inactive
C11orf52 (chromosome 11 open reading frame 52)	-0.55	inactive
C11orf52 (chromosome 11 open reading frame 52)	0.51	inactive
C11orf52 (chromosome 11 open reading frame 52)	0.93	inactive
C11orf52 (chromosome 11 open reading frame 52)	1.65	inactive
FAM89A (family with sequence similarity 89 member A)	1.94	inactive
FAM89A (family with sequence similarity 89 member A)	0	inactive
FAM89A (family with sequence similarity 89 member A)	0.22	inactive
FAM89A (family with sequence similarity 89 member A)	1	inactive
PXN (paxillin)	-1.87	active
PXN (paxillin)	-2.41	active
PXN (paxillin)	-2.23	active
PXN (paxillin)	-1.9	active
TBC1D10A (TBC1 domain family member 10A)	0.68	inactive
TBC1D10A (TBC1 domain family member 10A)	0.38	inactive
TBC1D10A (TBC1 domain family member 10A)	-0.01	inactive
TBC1D10A (TBC1 domain family member 10A)	1.69	inactive
TSPAN9 (tetraspanin 9)	-0.37	inactive
TSPAN9 (tetraspanin 9)	-0.97	inactive
TSPAN9 (tetraspanin 9)	-0.51	inactive
TSPAN9 (tetraspanin 9)	-0.55	inactive
NFKB2 (nuclear factor kappa B subunit 2)	2.08	inactive
NFKB2 (nuclear factor kappa B subunit 2)	3.38	active
NFKB2 (nuclear factor kappa B subunit 2)	3.01	active
NFKB2 (nuclear factor kappa B subunit 2)	3.07	active
R3HDM2 (R3H domain containing 2)	-1.53	active
R3HDM2 (R3H domain containing 2)	-0.56	inactive
R3HDM2 (R3H domain containing 2)	-1	inactive
R3HDM2 (R3H domain containing 2)	-1.26	inactive
B9D1 (B9 domain containing 1)	-0.75	inactive
B9D1 (B9 domain containing 1)	-1.36	inactive
B9D1 (B9 domain containing 1)	-1.52	active
B9D1 (B9 domain containing 1)	-1.02	inactive
C1orf105 (chromosome 1 open reading frame 105)	-0.42	inactive
C1orf105 (chromosome 1 open reading frame 105)	1.66	inactive
C1orf105 (chromosome 1 open reading frame 105)	3.26	active
C1orf105 (chromosome 1 open reading frame 105)	-0.78	inactive
PGP (phosphoglycolate phosphatase)	0.87	inactive
PGP (phosphoglycolate phosphatase)	-0.1	inactive
PGP (phosphoglycolate phosphatase)	-1.08	inactive
PGP (phosphoglycolate phosphatase)	-0.42	inactive
